These results are taken from publication PMC4311135.

Sequences of proteins named here, by UniProt entry; tags and fusion partners are left off. A change or cut given only in a name is not applied to a line headed by its entry. Residues count along the entry.
UniProt Q92542, residues 34-709: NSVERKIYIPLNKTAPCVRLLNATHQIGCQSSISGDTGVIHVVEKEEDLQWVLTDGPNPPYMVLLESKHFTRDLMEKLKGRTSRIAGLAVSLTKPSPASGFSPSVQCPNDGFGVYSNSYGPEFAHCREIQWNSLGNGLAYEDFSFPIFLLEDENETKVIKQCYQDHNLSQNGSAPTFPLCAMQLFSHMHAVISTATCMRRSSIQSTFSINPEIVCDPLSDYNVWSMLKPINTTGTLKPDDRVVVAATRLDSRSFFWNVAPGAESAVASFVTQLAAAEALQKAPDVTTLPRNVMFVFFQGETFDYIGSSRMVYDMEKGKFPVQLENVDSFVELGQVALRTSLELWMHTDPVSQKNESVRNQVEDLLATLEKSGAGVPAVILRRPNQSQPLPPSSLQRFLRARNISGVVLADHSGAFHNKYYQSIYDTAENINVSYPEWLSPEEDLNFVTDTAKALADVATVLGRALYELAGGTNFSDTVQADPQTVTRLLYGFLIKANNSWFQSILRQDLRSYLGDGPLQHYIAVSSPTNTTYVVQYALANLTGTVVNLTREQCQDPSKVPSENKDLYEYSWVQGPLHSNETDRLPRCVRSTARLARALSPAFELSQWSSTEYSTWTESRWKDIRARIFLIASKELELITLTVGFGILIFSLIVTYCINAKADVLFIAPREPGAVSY
UniProt Q96BI3: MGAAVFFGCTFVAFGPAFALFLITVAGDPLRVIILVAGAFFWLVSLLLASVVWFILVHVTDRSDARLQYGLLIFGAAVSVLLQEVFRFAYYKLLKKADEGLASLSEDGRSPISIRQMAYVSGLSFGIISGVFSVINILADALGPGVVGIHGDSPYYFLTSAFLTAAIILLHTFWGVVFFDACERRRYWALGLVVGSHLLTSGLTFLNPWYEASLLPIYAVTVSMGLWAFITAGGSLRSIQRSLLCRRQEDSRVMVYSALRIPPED

Results are given in words; binding and its absence hold for the method and conditions named. Binding calls can cover weak binding; strength is not graded here.

This experiment has as its target nicastrin (NCT), expressed as a GFP fusion (UniProt Q92542). In words: antibody labelling with negative-stain single particle electron microscopy; purified γ-secretase bound on Nb30 beads incubated overnight at 4°C with antibodies against NCT ECD, NCT CT, PS1 CTF, APH-1 and PEN-2, eluted with 250 mM imidazole; 2D class averages.

Turning to “anterior pharynx defective 1A (APH-1A) (from UniProt Q96BI3)”, the binding result is recorded as “binds”.
